Experimental data reported in paper PMC9452514, “Coiled-coil structure of meiosis protein TEX12 and conformational regulation by its C-terminal tip” (Communications Biology, 2022).
These are yes or no findings as the source states them, for the method shown. Some binding calls cover weakened binding; strength is not graded here.

Target: TEX12 F109E (human) (UniProt Q9BXU0)
Experiment: SEC-SAXS; Superdex 200 Increase 10/300 GL, 20 mM Tris pH 8.0, 150 mM KCl; samples at >5 mg/ml; beamline B21, Diamond Light Source; both purified

binding: binds
B1: TEX12 F109E (domain or fragment, UniProt Q9BXU0 49-123)
chain: KDEALEKDLNDVSKEINLMLSTYAKLLSERAAVDASYIDEIDELFKEANAIENFLIQKREELRQRFTVIANTLHR
